Numbering of substitutions follows the chain as printed. These are yes or no findings as the source states them, for the method shown. Binding seen in cells or lysates may run through a third protein. Some entries that bind do so weakly or less than the wild type. For part of these data: Where a sequence is shown, tags or fusion partners need not be part of it.
T1: MYC-DGCR8 (wild-type, full-length) (human) (UniProt Q8WYQ5)
T1 sequence: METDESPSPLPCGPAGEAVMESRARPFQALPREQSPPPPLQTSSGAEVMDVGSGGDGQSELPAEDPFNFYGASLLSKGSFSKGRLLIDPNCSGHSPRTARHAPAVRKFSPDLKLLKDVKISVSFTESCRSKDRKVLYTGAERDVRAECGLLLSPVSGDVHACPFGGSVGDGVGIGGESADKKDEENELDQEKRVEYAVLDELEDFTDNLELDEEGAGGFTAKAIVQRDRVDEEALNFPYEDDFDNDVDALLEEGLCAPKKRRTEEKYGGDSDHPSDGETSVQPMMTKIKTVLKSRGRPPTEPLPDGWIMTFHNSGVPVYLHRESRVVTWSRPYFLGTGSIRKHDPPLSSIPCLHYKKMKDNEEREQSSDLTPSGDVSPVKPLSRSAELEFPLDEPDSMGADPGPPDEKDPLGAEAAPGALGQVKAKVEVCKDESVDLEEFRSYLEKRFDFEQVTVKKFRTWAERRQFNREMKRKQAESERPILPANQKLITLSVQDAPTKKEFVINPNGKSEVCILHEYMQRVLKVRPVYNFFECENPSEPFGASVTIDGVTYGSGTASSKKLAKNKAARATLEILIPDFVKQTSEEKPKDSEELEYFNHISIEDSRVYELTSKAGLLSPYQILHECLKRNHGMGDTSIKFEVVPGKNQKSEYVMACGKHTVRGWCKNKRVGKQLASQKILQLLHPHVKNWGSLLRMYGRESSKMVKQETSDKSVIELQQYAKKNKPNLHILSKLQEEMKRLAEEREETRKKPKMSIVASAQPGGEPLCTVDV

Sequences of proteins named here, by UniProt entry; tags and fusion partners are left off.
UniProt Q8IYW5: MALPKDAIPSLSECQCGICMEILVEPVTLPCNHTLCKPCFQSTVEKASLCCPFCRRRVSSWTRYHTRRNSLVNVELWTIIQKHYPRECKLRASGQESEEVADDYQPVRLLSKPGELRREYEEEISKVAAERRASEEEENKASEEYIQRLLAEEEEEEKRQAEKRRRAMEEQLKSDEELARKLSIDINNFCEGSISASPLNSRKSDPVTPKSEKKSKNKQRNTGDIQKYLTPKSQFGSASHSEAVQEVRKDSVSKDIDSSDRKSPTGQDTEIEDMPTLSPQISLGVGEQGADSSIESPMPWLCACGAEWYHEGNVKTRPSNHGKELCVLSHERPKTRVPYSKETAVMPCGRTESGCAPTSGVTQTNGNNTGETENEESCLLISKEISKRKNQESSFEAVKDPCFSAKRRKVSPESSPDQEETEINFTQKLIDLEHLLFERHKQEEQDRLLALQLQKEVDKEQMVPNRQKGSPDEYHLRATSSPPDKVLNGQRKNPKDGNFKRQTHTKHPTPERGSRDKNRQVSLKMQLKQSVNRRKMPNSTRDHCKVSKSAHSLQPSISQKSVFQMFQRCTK

T2: DGCR8 (endogenous) (human (endogenous in LM2)) (UniProt Q8WYQ5)
T2 sequence: T1 sequence

T3: MYC-DGCR8 S677D (phosphomimetic mutant) (human) (UniProt Q8WYQ5)
T3 sequence: T1 sequence with S677D

B1: SFB-USP36 (enzyme, UniProt Q9P275 1-1123)
chain: MPIVDKLKEALKPGRKDSADDGELGKLLASSAKKVLLQKIEFEPASKSFSYQLEALKSKYVLLNPKTEGASRHKSGDDPPARRQGSEHTYESCGDGVPAPQKVLFPTERLSLRWERVFRVGAGLHNLGNTCFLNATIQCLTYTPPLANYLLSKEHARSCHQGSFCMLCVMQNHIVQAFANSGNAIKPVSFIRDLKKIARHFRFGNQEDAHEFLRYTIDAMQKACLNGCAKLDRQTQATTLVHQIFGGYLRSRVKCSVCKSVSDTYDPYLDVALEIRQAANIVRALELFVKADVLSGENAYMCAKCKKKVPASKRFTIHRTSNVLTLSLKRFANFSGGKITKDVGYPEFLNIRPYMSQNNGDPVMYGLYAVLVHSGYSCHAGHYYCYVKASNGQWYQMNDSLVHSSNVKVVLNQQAYVLFYLRIPGSKKSPEGLISRTGSSSLPGRPSVIPDHSKKNIGNGIISSPLTGKRQDSGTMKKPHTTEEIGVPISRNGSTLGLKSQNGCIPPKLPSGSPSPKLSQTPTHMPTILDDPGKKVKKPAPPQHFSPRTAQGLPGTSNSNSSRSGSQRQGSWDSRDVVLSTSPKLLATATANGHGLKGNDESAGLDRRGSSSSSPEHSASSDSTKAPQTPRSGAAHLCDSQETNCSTAGHSKTPPSGADSKTVKLKSPVLSNTTTEPASTMSPPPAKKLALSAKKASTLWRATGNDLRPPPPSPSSDLTHPMKTSHPVVASTWPVHRARAVSPAPQSSSRLQPPFSPHPTLLSSTPKPPGTSEPRSCSSISTALPQVNEDLVSLPHQLPEASEPPQSPSEKRKKTFVGEPQRLGSETRLPQHIREATAAPHGKRKRKKKKRPEDTAASALQEGQTQRQPGSPMYRREGQAQLPAVRRQEDGTQPQVNGQQVGCVTDGHHASSRKRRRKGAEGLGEEGGLHQDPLRHSCSPMGDGDPEAMEESPRKKKKKKRKQETQRAVEEDGHLKCPRSAKPQDAVVPESSSCAPSANGWCPGDRMGLSQAPPVSWNGERESDVVQELLKYSSDKAYGRKVLTWDGKMSAVSQDAIEDSRQARTETVVDDWDEEFDRGKEKKIKKFKREKRRNFNAFQKLQTRRNFWSVTHPAKAASLSYRR
B2: SFB-USP51 (enzyme, human, UniProt Q70EK9 1-711, looked up)
chain: MAQVRETSLPSGSGVRWISGGGGGASPEEAVEKAGKMEEAAAGATKASSRREAEEMKLEPLQEREPAPEENLTWSSSGGDEKVLPSIPLRCHSSSSPVCPRRKPRPRPQPRARSRSQPGLSAPPPPPARPPPPPPPPPPPAPRPRAWRGSRRRSRPGSRPQTRRSCSGDLDGSGDPGGLGDWLLEVEFGQGPTGCSHVESFKVGKNWQKNLRLIYQRFVWSGTPETRKRKAKSCICHVCSTHMNRLHSCLSCVFFGCFTEKHIHKHAETKQHHLAVDLYHGVIYCFMCKDYVYDKDIEQIAKETKEKILRLLTSTSTDVSHQQFMTSGFEDKQSTCETKEQEPKLVKPKKKRRKKSVYTVGLRGLINLGNTCFMNCIVQALTHIPLLKDFFLSDKHKCIMTSPSLCLVCEMSSLFHAMYSGSRTPHIPYKLLHLIWIHAEHLAGYRQQDAHEFLIAILDVLHRHSKDDSGGQEANNPNCCNCIIDQIFTGGLQSDVTCQACHSVSTTIDPCWDISLDLPGSCATFDSQNPERADSTVSRDDHIPGIPSLTDCLQWFTRPEHLGSSAKIKCNSCQSYQESTKQLTMKKLPIVACFHLKRFEHVGKQRRKINTFISFPLELDMTPFLASTKESRMKEGQPPTDCVPNENKYSLFAVINHHGTLESGHYTSFIRQQKDQWFSCDDAIITKATIEDLLYSEGYLLFYHKQGLEKD
notes: USP51, human DUB ORF in the pBabe-SFB vector; also called SFB-tagged USP51; source: HEK293T, transfected, in lysate; purified from transfected HEK293T cells
B3: USP36 (endogenous) (enzyme, UniProt Q9P275 1-1123)
chain: B1 chain
B4: USP51 (endogenous) (enzyme, UniProt Q70EK9 1-711)
chain: B2 chain

How the values were obtained:
[1] = molecular target: T1, MYC-DGCR8 (wild-type, full-length) (human); test: co-IP; DGCR8 co-IP in HEK293T cells with or without IR (Supplementary Fig. 2c; details not shown)
[2] = molecular target: T2, DGCR8 (endogenous) (human (endogenous in LM2)); test: co-IP; chromatin fractions of LM2 cells (IR 8 Gy followed by 1 h), with or without MNase treatment, immunoprecipitated with a DGCR8-specific antibody
[3] = molecular target: T1, MYC-DGCR8 (wild-type, full-length) (human); test: co-IP; MYC-tagged DGCR8 (WT, S677A or S677D) overexpressed in LM2 cells, with or without IR (8 Gy followed by 1 h or 8 h); pulldown with anti-MYC agarose beads, 4 °C, 2 h; immunoblotting
[4] = molecular target: T1, MYC-DGCR8 (wild-type, full-length) (human); test: co-IP; HEK293T cells co-transfected with MYC-DGCR8 and SFB-tagged USP36 or USP51; after 48 h immunoprecipitated with anti-MYC beads; immunoblotting for FLAG and MYC
[5] = molecular target: T2, DGCR8 (endogenous) (human (endogenous in LM2)); test: co-IP; endogenous proteins; DGCR8 immunoprecipitated with a DGCR8-specific antibody from LM2 (and LM2-R) cells, with or without 8 Gy IR followed by 8 h; CHAPS buffer
[6] = molecular target: T3, MYC-DGCR8 S677D (phosphomimetic mutant) (human); test: co-IP; MYC-tagged DGCR8 (WT, S677A or S677D) overexpressed in LM2 cells, with or without IR (8 Gy followed by 1 h or 8 h); pulldown with anti-MYC agarose beads, 4 °C, 2 h; immunoblotting

| Molecule | binding [3] | binding [4] | binding [5] | also measured |
| --- | --- | --- | --- | --- |
| RNF168 (endogenous) (from UniProt Q8IYW5 1-571) (enzyme) | binds |  |  | binding [1]: binds; binding [2]: binds |
| B1 |  | binds |  |  |
| B2 |  | binds |  |  |
| B3 |  |  | binds |  |
| B4 | binds |  | binds | binding [6]: binds |

Source: paper PMC8242032, “Non-canonical function of DGCR8 in DNA double-strand break repair signaling and tumor radioresistance” (Nature Communications, 2021)
